Experimental data reported in publication PMC10318529.
No constants are given. Whether binding was seen depends on the method and setting. In cells and extracts the contact can be indirect.

Target: T1, Matrix Gla protein (human (endogenous in bone marrow MSCs)) (UniProt P08493)
T1 sequence: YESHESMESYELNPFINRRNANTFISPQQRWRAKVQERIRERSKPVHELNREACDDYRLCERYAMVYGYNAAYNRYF
Assay: co-IP; MSCs lysates in IP lysis buffer with 1% PMSF and phosphatase inhibitor; incubated overnight at 4 °C with antibodies against APPL1, MGP, BMP2 or IgG controls; Dynabeads Protein G, 3 h at 4 °C; Western blot

binding: no binding
B1: Adaptor protein, phosphotyrosine interacting with PH domain and leucine zipper 1 (protein, UniProt Q9UKG1 1-709)
chain: MPGIDKLPIEETLEDSPQTRSLLGVFEEDATAISNYMNQLYQAMHRIYDAQNELSAATHLTSKLLKEYEKQRFPLGGDDEVMSSTLQQFSKVIDELSSCHAVLSTQLADAMMFPITQFKERDLKEILTLKEVFQIASNDHDAAINRYSRLSKKRENDKVKYEVTEDVYTSRKKQHQTMMHYFCALNTLQYKKKIALLEPLLGYMQAQISFFKMGSENLNEQLEEFLANIGTSVQNVRREMDSDIETMQQTIEDLEVASDPLYVPDPDPTKFPVNRNLTRKAGYLNARNKTGLVSSTWDRQFYFTQGGNLMSQARGDVAGGLAMDIDNCSVMAVDCEDRRYCFQITSFDGKKSSILQAESKKDHEEWICTINNISKQIYLSENPEETAARVNQSALEAVTPSPSFQQRHESLRPAAGQSRPPTARTSSSGSLGSESTNLAALSLDSLVAPDTPIQFDIISPVCEDQPGQAKAFGQGGRRTNPFGESGGSTKSETEDSILHQLFIVRFLGSMEVKSDDHPDVVYETMRQILAARAIHNIFRMTESHLLVTCDCLKLIDPQTQVTRLTFPLPCVVLYATHQENKRLFGFVLRTSSGRSESNLSSVCYIFESNNEGEKICDSVGLAKQIALHAELDRRASEKQKEIERVKEKQQKELNKQKQIEKDLEEQSRLIAASSRPNQASSEGQFVVLSSSQSEESDLGEGGKKRESEA
